Experiment: Wheel box test (NACE ID182), corrosion protection in CO2-saturated brine/oil
Conditions: for % Protection: 80°C, 24 hours, 80% ASTM Seawater brine / 20% LVT-200, CO2 saturated; for % Improvement: improvement of % Protection relative to Control

Compound: CCCCCCCC/C=C\CCCCCCCC1=[N+](CC(C)O)CCN1CCO (stereo not drawn) [Composition 1, (Z)-2-(heptadec-8-en-1-yl)-1-(2-hydroxyethyl)-3-(2-hydroxypropyl)-4,5-dihydro-1H-imidazol-3-ium Gluconate]
- % Protection (inhibitor 10 ppm): 33.0%
- % Improvement (inhibitor 10 ppm): 24%
- % Protection (inhibitor 25 ppm): 63.0%
- % Improvement (inhibitor 25 ppm): 45%
- % Protection (inhibitor 50 ppm): 73.0%
- % Improvement (inhibitor 50 ppm): 46%

Compound: CCCCCCCC/C=C\CCCCCCCC1=[N+](CC(O)c2ccccc2)CCN1CCO (stereo not drawn) [Composition 2, (Z)-2-(heptadec-8-en-1-yl)-3-(2-hydroxy-2-phenylethyl)-1-(2-hydroxyethyl)-4,5-dihydro-1H-imidazol-3-ium Gluconate]
- % Protection (inhibitor 10 ppm): 45.0%
- % Improvement (inhibitor 10 ppm): 70%
- % Protection (inhibitor 25 ppm): 65.0%
- % Improvement (inhibitor 25 ppm): 49%
- % Protection (inhibitor 50 ppm): 79.5%
- % Improvement (inhibitor 50 ppm): 59%

Compound: (Z)-2-(heptadec-8-en-1-yl)-1-(2-hydroxyethyl)-4,5-dihydro-1H-imidazol-3-ium gluconate [Control, reference compound]
- % Protection (inhibitor 10 ppm): 26.5%
- % Protection (inhibitor 25 ppm): 43.5%
- % Protection (inhibitor 50 ppm): 50.0%

Reference: US20250369123A1, “ALKOXYIMI[…] COMPOSITIONS AND METHODS OF USING THE COMPOSITIONS TO INHIBIT CORROSION” (Ecolab USA Inc., priority 2024, published 2025)
